Results are given in words; binding and its absence hold for the method and conditions named. In cells and extracts the contact can be indirect. A yes stands for co-enrichment or nearness to the bait. Other partners may have been found.
Target: SOX8 (human (endogenous in ligament fibroblasts from patients)) (UniProt P57073)
Assay: affinity purification with mass spectrometry; antigen-antibody-bead complexes (Protein A + G magnetic beads) from protein lysates analysed by LC-MS/MS; cells and bait antibody not named for this experiment

Amino acid sequences for entries named in this document (tags omitted).
UniProt P57073: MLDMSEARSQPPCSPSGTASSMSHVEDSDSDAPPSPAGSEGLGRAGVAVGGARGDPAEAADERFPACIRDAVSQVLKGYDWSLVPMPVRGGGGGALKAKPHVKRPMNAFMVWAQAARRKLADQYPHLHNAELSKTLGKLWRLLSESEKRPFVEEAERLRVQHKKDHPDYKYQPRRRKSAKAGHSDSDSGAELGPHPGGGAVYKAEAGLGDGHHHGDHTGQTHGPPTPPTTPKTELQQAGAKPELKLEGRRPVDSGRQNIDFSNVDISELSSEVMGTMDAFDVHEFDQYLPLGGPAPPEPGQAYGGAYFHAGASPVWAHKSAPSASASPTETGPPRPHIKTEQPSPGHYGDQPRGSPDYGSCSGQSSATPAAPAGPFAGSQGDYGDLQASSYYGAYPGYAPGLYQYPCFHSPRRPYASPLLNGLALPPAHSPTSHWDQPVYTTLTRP
UniProt Q14258: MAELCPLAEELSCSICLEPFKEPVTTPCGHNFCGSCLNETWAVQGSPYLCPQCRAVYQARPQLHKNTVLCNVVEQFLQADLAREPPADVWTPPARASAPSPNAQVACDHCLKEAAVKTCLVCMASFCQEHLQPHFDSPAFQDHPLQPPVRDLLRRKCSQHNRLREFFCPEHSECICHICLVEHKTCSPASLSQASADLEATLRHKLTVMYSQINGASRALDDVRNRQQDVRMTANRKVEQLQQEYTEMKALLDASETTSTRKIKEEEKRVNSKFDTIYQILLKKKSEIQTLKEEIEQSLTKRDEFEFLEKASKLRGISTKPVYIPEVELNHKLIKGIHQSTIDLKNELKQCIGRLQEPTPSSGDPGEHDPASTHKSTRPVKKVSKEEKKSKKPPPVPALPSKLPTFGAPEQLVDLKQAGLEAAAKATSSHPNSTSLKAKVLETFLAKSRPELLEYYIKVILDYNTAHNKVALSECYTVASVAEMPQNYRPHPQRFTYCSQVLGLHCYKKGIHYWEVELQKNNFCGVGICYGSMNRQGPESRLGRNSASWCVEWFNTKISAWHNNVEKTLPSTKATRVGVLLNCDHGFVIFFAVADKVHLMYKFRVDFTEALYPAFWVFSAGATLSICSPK

binding: binds
Substance: TRIM25 (from UniProt Q14258 1-630) (enzyme)
